Measured values as given in the supplement of paper PMC4604168 (melanoma cell lines).
The list shows a part of the results. Many values rest on one well or one pass, so single values are uncertain.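 Imaging used 1,536-well plates; nuclei positive for cleaved PARP by antibody were divided by total DNA-stained nuclei to yield the apoptosis fraction. Doses for screening kept most cells viable, and cell lines differ markedly in resting and induced cleaved-PARP levels.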

Tests used:
Assay in all cases: cleaved PARP positive nuclei fraction relative to DMSO control; melanoma cells; higher = more apoptosis
Details in all cases: library dose: low library concentration; 72 h
MZ2-MEL = tested on: MZ2-MEL
MeWo = tested on: MeWo
RPMI7951 = tested on: RPMI7951
RVH-421 = tested on: RVH-421
SkMel28 = tested on: SkMel28
SkMel2 = tested on: SkMel2
SkMel30 = tested on: SkMel30
UACC62 = tested on: UACC62
WM115 = tested on: WM115
WM1716 = tested on: WM1716
WM1745 = tested on: WM1745
WM3526 = tested on: WM3526
WM3619 = tested on: WM3619
WM451Lu = tested on: WM451Lu

Row | Compound | cleaved PARP positive nuclei fraction (MZ2-MEL) | cleaved PARP positive nuclei fraction (MeWo) | cleaved PARP positive nuclei fraction (RPMI7951) | cleaved PARP positive nuclei fraction (RVH-421) | cleaved PARP positive nuclei fraction (SkMel28) | cleaved PARP positive nuclei fraction (SkMel2) | cleaved PARP positive nuclei fraction (SkMel30) | cleaved PARP positive nuclei fraction (UACC62) | cleaved PARP positive nuclei fraction (WM115) | cleaved PARP positive nuclei fraction (WM1716) | cleaved PARP positive nuclei fraction (WM1745) | cleaved PARP positive nuclei fraction (WM3526) | cleaved PARP positive nuclei fraction (WM3619) | cleaved PARP positive nuclei fraction (WM451Lu)
1 | Cn1cc(C2=C(c3cn(C4CCN(Cc5ccccn5)CC4)c4ccccc34)C(=O)NC2=O)c2ccccc21 [Enzastaurin] + CC(C)C[C@H](NC(=O)[C@H](Cc1ccccc1)NC(=O)c1cnccn1)B(O)O [Bortezomib] (first compound 0.8 µM, partner dose 0.001 µM) | 50.8% | 82.7% | 97.9% | 66.6% | 52.9% | 94.7% | 15.4% | 31.8% | 73.1% | 223% | 215% | 39.3% | 1000% | 82.6%
2 | CC1(C)CCC(c2ccc(Cl)cc2)=C(CN2CCN(c3ccc(C(=O)NS(=O)(=O)c4ccc(N[C@H](CCN5CCOCC5)CSc5ccccc5)c(S(=O)(=O)C(F)(F)F)c4)cc3)CC2)C1 + C[As](C)SC[C@H](NC(=O)CC[C@H](N)C(=O)O)C(=O)NCC(=O)O [Darinaparsin] (first compound 0.4 µM, partner dose 0.4 µM) | 122% | 511% | 74.3% | 188% | 41.9% | 138% | 52.4% | 92.5% | 166% | 463% | 593% | 188% | 93.3% | 24.2%
3 | Cn1cc(C2=C(c3cn(C4CCN(Cc5ccccn5)CC4)c4ccccc34)C(=O)NC2=O)c2ccccc21 [Enzastaurin] + C[As](C)SC[C@H](NC(=O)CC[C@H](N)C(=O)O)C(=O)NCC(=O)O [Darinaparsin] (first compound 0.8 µM, partner dose 0.4 µM) | 154% | 36.6% | 30.1% | 115% | 72.9% | 358% | 80.6% | 106% | 69.8% | 29.9% | 107% | 25.9% | 88.1% | 53.7%
4 | O=C(O)[C@@H]1[O][Sb](=[O])([O][Sb]2(=[O])[O][C@H]([C@H](O)CO)[C@H](O)[C@H](C(=O)O)[O]2)[O][C@H]([C@H](O)CO)[C@@H]1O (stereo not given in full) [stibogluconate] + C[As](C)SC[C@H](NC(=O)CC[C@H](N)C(=O)O)C(=O)NCC(=O)O [Darinaparsin] (first compound 2 µM, partner dose 0.4 µM) | 42.4% | 202% | 50.8% | 104% | 171% | 93.6% | 150% | 36.5% | 84.8% | 207% | 85.7% | 80.4% | 96.6% | 76.8%
5 | Cn1cc(C2=C(c3cn(C4CCN(Cc5ccccn5)CC4)c4ccccc34)C(=O)NC2=O)c2ccccc21 [Enzastaurin] + O=C(O)[C@@H]1[O][Sb](=[O])([O][Sb]2(=[O])[O][C@H]([C@H](O)CO)[C@H](O)[C@H](C(=O)O)[O]2)[O][C@H]([C@H](O)CO)[C@@H]1O [stibogluconate] (first compound 0.8 µM, partner dose 2 µM) | 64.7% | 54.2% | 38.8% | 76.8% | 50.1% | 126% | 70.3% | 48.5% | 82.9% | 36.7% | 101% | 62.9% | 80.4% | 21.7%
6 | Cn1cc(C2=C(c3cn(C4CCN(Cc5ccccn5)CC4)c4ccccc34)C(=O)NC2=O)c2ccccc21 [Enzastaurin] + OCc1c[nH]c2ccccc12 [Indole-3-carbinol] (first compound 0.8 µM, partner dose 0.8 µM) | 47.1% | 42.2% | 41.8% | 95.7% | 85.7% | 117% | 75.4% | 175% | 111% | 124% | 92.5% | 27.2% | 100% | 88.1%
7 | NC1(c2ccc(-c3nc4ccn5c(=O)[nH]nc5c4cc3-c3ccccc3)cc2)CCC1 + C[As](C)SC[C@H](NC(=O)CC[C@H](N)C(=O)O)C(=O)NCC(=O)O [Darinaparsin] (first compound 0.4 µM, partner dose 0.4 µM) | 79.7% | 49.6% | 54% | 68.5% | 200% | 110% | 75.9% | 161% | 164% | 80.9% | 119% | 53% | 179% | 157%
8 | CS(=O)(=O)c1ccc(C(=O)Nc2ccc(Cl)c(-c3ccccn3)c2)c(Cl)c1 [vismodegib] + N.N.[Cl][Pt][Cl] [cisplatin] (first compound 1 µM, partner dose 1.6 µM) | 70.4% | 181% | 63.1% | 210% | 91.8% | 65.3% | 43.9% | 45.4% | 79.4% | 98.2% | 95.2% | 46.6% | 185% | 72%
9 | N#CC[C@H](C1CCCC1)n1cc(-c2ncnc3[nH]ccc23)cn1 [ruxolitinib] + N.N.[Cl][Pt][Cl] [cisplatin] (first compound 1 µM, partner dose 1.6 µM) | 137% | 143% | 187% | 151% | 76.3% | 89.9% | 66.1% | 40.9% | 174% | 39.8% | 106% | 359% | 88.3% | 62.9%
10 | Cn1cc(C2=C(c3cn(C4CCN(Cc5ccccn5)CC4)c4ccccc34)C(=O)NC2=O)c2ccccc21 [Enzastaurin] + CCCS(=O)(=O)Nc1ccc(F)c(C(=O)c2c[nH]c3ncc(Cl)cc23)c1F [PLX4720] (first compound 0.8 µM, partner dose 0.08 µM) | 51.7% | 47.6% | 175% | 155% | 43.6% | 416% | 64.2% | 289% | 76.9% | 219% | 87.2% | 143% | 108% | 26%
